Data taken from PubChem BioAssay AID1259415 (National Center for Advancing Translational Sciences (NCATS), 2018).
The whole screen tested about 410,000 compounds, of which about 18,000 (4.4%) were called active. The shares of active, inactive and inconclusive entries below differ from those in the screen. Rule as the data show it: active = activity change below about -60%; inconclusive = no clear call, values can overlap the other calls; inactive = above about -39%.

Experiment: qHTS Assay for inhibitors of the human cytomegalovirus (HCMV)
Settings: HFF cells, HCMV-luciferase reporter, 72 h; at 57.5 µM; hits give low values
Procedure, shortened: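 HFF cells seeded 16 h at 37C, treated with compounds, infected with luciferase-reporter HCMV at MOI 1 PFU/cell; luciferase read at 72 h post infection, normalized to buffer-only and Salinomycin controls.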
% is scaled to controls: 0 for no effect and ±100 for the full control effect.

Row | Compound | activity change, negative = inhibition
1 | CC(=O)Nc1ccc(CN2CCc3c([nH]c4ccccc34)C2C(C)(C)C)cc1 (stereo unspecified) | inactive: 120%
2 | COc1ccc(C(C)=O)cc1CSc1nnc(-c2ccc(Cl)cc2)n1-c1ccccc1 | inconclusive: -54.7%
3 | O=C(NCCNC(=O)c1ccc([N+](=O)[O-])cc1)c1ccncc1 | inconclusive: -43%
4 | Cc1ccnc2nc(C(=O)Nc3nccs3)nn12 | inactive: 9.85%
5 | CN1C(=O)/C(=C2\SC(=S)N(CCCCCC(=O)O)C2=O)c2ccccc21 | inconclusive: -42.9%
6 | CCC1=Nc2cc(C(=O)NCCN(CC)CC)ccc2Sc2ccccc21 | inconclusive: -55.3%
7 | O=C(CC1NCCNC1=O)Nc1ccc([N+](=O)[O-])cc1 (stereo unspecified) | inactive: -5.25%
8 | Cc1ccc(NC(=O)c2cc(S(=O)(=O)N3CCc4ccccc43)cn2C)c(Cl)c1 | active: -60.7%
9 | NCCCC[C@H]1CN=C(N)N1CC1CCCCC1 | inconclusive: -44.6%
10 | Cc1ccccc1OCC(=O)Nc1cccc(C(=O)OCc2cc(=O)n3c(C)csc3n2)c1 | active: -89.3%
11 | CCCCn1nnnc1SCC(=O)NC1CCCCC1 | active: -98.9%
12 | COc1ccc(-c2ccc3[nH]c4c(c3c2)CCN2C[C@H]3[C@H](C)ON(C)[C@H]3C[C@@H]42)cc1 | inconclusive: -51.3%
13 | COc1ccc(NC(=O)C2CCN(S(=O)(=O)c3ccc(N4CCCC4=O)cc3)CC2)cc1OC | inactive: -27.8%
14 | Cc1ccc(S(=O)(=O)Cc2ccc(C(=O)N3CCN(c4cccc(Cl)c4)CC3)o2)cc1 | inconclusive: -40.2%
15 | Cc1ccc(S(=O)(=O)N2CCCc3cc(NS(=O)(=O)c4cc(C)ccc4C)ccc32)cc1 | inconclusive: -41.2%
16 | Cc1cnc(C(=O)NC(Cc2ccccc2)c2ccccc2)cn1 (stereo unspecified) | inactive: 18.3%
17 | COC(=O)c1cc(=O)n(CCc2ccc(OC)cc2)c(=Nc2ccc(F)c(Cl)c2)s1 | inconclusive: -41.6%
18 | CC(=O)Nc1ccc(S(=O)(=O)Oc2ccc(C=O)cc2)cc1 | inconclusive: -57.7%
19 | Cc1cccc(NC(=S)/N=C(\N)Nc2nc(C)c3ccccc3n2)c1 | inconclusive: -48.2%

Row | Compound | activity change, negative = inhibition
20 | O=C(OCC(=O)N1CCN(C(=O)c2ccco2)CC1)c1cc(-c2ccc(Cl)c(Cl)c2Cl)nc2ccccc12 | inactive: -0.587%
21 | CCCCC(=O)Nc1ccc(S(=O)(=O)N2CCCCC2c2cccnc2)cc1 (stereo unspecified) | inconclusive: -43.6%
22 | CCC(=O)NCc1ccc(-c2nc3ncccc3o2)cc1 | inactive: 45.3%
23 | CCOC(=O)C1CCN(C2=NC(=O)/C(=C/c3ccc(Cl)cc3)S2)CC1 | inactive: -9.87%
24 | CCOc1ccc(Nc2nc(Cc3nnc(SCC(=O)NCc4ccco4)n3CC)cs2)cc1 | inconclusive: -51.8%
25 | CCC(C)(C)c1ccc(Oc2ccc(NC(=O)COC(=O)C3=COCCO3)cc2)cc1 | active: -70.9%
26 | COc1ccc(C(=O)NCC2(c3ccccc3)CCCC2)c(OC)c1 | inconclusive: -53.2%
27 | Cc1cc(N(C)/N=C/c2ccccc2)nc(-c2ccccc2O)n1 | inconclusive: -40.2%
28 | CCOc1ccc(-n2c(SCC(=O)OC)nc3sc4c(c3c2=O)CCN(C)C4)cc1 | inconclusive: -50.4%
29 | Cc1c(-c2cc(C(=O)O)on2)cnn1C | inconclusive: -41.4%
30 | CCOc1ccc(N(CC(=O)NC2CCCCC2)S(=O)(=O)c2ccccc2)cc1 | inactive: -23.5%
31 | Cc1ccc(-c2c(C(=O)NNC(=S)NCC3CCCO3)csc2C)cc1 (stereo unspecified) | inconclusive: -57.7%
32 | CCOC(=O)/C(C#N)=C/c1cn(CCC(=O)O)nc1-c1ccc(OC)cc1 | inconclusive: -55.1%
33 | COC(=O)c1ccc(COC(=O)c2ccc(CS(=O)(=O)c3ccc(C)cc3)cc2)cc1 | inactive: 34.3%
34 | Cc1cccc(OCc2nnc(SCC(=O)N3c4ccccc4CCc4ccccc43)o2)c1 | inconclusive: -54.4%
35 | Cc1ccccc1NC(=O)/C(=C/c1ccco1)c1ccccc1 | active: -104%
36 | Cc1cc(=O)[nH]c(SCC(=O)NC(c2ccccc2)c2ccccc2)n1 | inconclusive: -48%
37 | COc1ccc(CN2CCN(C(=O)C3CC(=O)N(C4CCCCCC4)C3)CC2)c(OC)c1OC (stereo unspecified) | inconclusive: -54.2%
38 | Cc1c(C(=O)Oc2cccc3cccnc23)cccc1[N+](=O)[O-] | inconclusive: -57.3%

Row | Compound | activity change, negative = inhibition
39 | O=C1Nc2ccc(Br)cc2C(c2ccc(Cl)cc2)=NC1O (stereo unspecified) | inconclusive: -45.2%
40 | CCOC(=O)c1sc(NC(=O)c2ccncc2)c(C#N)c1C | active: -68.4%
41 | CN(C)CCOC(=O)COc1ccc(Cl)cc1 | inconclusive: -43.6%
42 | CC(NC(=S)Nc1ccc(F)cc1)c1ccccc1 (stereo unspecified) | inconclusive: -48.1%
43 | CCN(CC)c1ccc2c(C)c(-c3ccc(N)cc3)c(=O)oc2c1 | inconclusive: -57.5%
44 | COCCCNC(=O)c1ccc2c(c1)N(Cc1ccccc1)C(=O)c1ccccc1S2 | inactive: -6.47%
45 | Nc1ccc(N2CCN(c3ccc(F)cc3)CC2)cc1 | active: -60.3%
46 | CCCC(=O)Nc1sc(C)c(C)c1C(=O)Nc1cccc(C)c1 | inconclusive: -53.4%
47 | FC(F)(F)c1cccc(Cn2nnnc2-c2ccc(Cl)cc2)c1 | inconclusive: -48.8%
48 | Cc1cccc(NC(=S)NNC(=O)c2ccc(O)cc2O)c1C | active: -98.3%
49 | O=c1[nH]c(Nc2ccccc2Cl)cc2ccccc12 | inactive: 3.95%
50 | N/C(=N\NC(=O)c1cccs1)c1cc2cc(Cl)ccc2oc1=O | inconclusive: -43.8%
51 | CCCCCCCCNC(=S)NCCN1CCCCC1 | active: -65.7%
52 | CC(C)c1ccc(NC(=O)C2CCCN(S(=O)(=O)c3ccc4c(c3)C(C)(C)C(=O)N4C)C2)cc1 (stereo unspecified) | inconclusive: -57.2%
53 | Cc1nc2ccccc2n1Cc1ccccc1Br | inconclusive: -50.3%
54 | C/C(=C\C(=O)C(F)(F)F)Nc1ccc(C(F)(F)F)cc1 | inconclusive: -46.2%
55 | COc1ccc(CN2CCN(C(=O)CCC(=O)Nc3nnc(CC(C)C)s3)CC2)cc1F | active: -65.3%
56 | COc1ccc(/C=C/C(=O)C(C)(C)C)cc1OC | inconclusive: -49.8%

Of the compounds above, these contain an NH in an aromatic ring.
Row | Compound | activity change, negative = inhibition
1 | CC(=O)Nc1ccc(CN2CCc3c([nH]c4ccccc34)C2C(C)(C)C)cc1 (stereo unspecified) | inactive: 120%
12 | COc1ccc(-c2ccc3[nH]c4c(c3c2)CCN2C[C@H]3[C@H](C)ON(C)[C@H]3C[C@@H]42)cc1 | inconclusive: -51.3%
36 | Cc1cc(=O)[nH]c(SCC(=O)NC(c2ccccc2)c2ccccc2)n1 | inconclusive: -48%
49 | O=c1[nH]c(Nc2ccccc2Cl)cc2ccccc12 | inactive: 3.95%
